For some assays here: Expression values are those of the mRNA of the gene that encodes the peptide; a gene is named only where it was looked up.
Columns and labels:
HLA-A*24 = assay: Identification and relative LC-MS quantitation of HLA-A*24-presented tumor-associated peptides on tissue samples (presentation profiles, Tables 14A, 14B, 16, FIG. 1); set-up: species or system human; key to Presentation score GC / Presentation score NSCLC / Presentation score PCA / Presentation score GB / Presentation score HCC / Presentation score RCC: specifically presented on tumors (++++); very highly over-presented on tumors compared to a panel of normal tissues (+++); highly over-presented on tumors compared to a panel of normal tissues (++); over-presented on tumors compared to a panel of normal tissues (+); conditions: for Presentation score HCC: hepatocellular carcinoma (N = 15) vs panel of normal tissues (N = 70); for Presentation score NSCLC: non-small cell lung cancer (N = 91) vs panel of normal tissues (N = 70); for Presentation score GB: glioblastoma (N = 18) vs panel of normal tissues (N = 70)
source genes (mRNA) [1] = assay: Gene and exon expression of source genes, TCGA tumor samples compared with normal tissue samples (Lonsdale, 2013) (Table 17); set-up: species or system human; conditions: for Over-expression category of source gene (target coverage), BLCA: BLCA = Bladder urothelial carcinoma (N = 408); for Over-expression category of source gene (target coverage), BRCA: BRCA = Breast cancer (N = 1104), tumors more than 2-fold above highest 75% percentile of normal tissues; for Over-expression category of source gene (target coverage), DLBC: DLBC = Lymphoid neoplasm diffuse large B-cell lymphoma (N = 48); for Over-expression category of source gene (target coverage), ESCA: ESCA = Esophageal cancer (N = 185); for Over-expression category of source gene (target coverage), GBM: GBM = Glioblastoma multiforme (N = 169); for Over-expression category of source gene (target coverage), KIRC: KIRC = Clear cell kidney carcinoma (N = 534); for Over-expression category of source gene (target coverage), KIRP: KIRP = Papillary kidney carcinoma (N = 291); for Over-expression category of source gene (target coverage), LAML: LAML = Acute Myeloid Leukemia (N = 173); for Over-expression category of source gene (target coverage), LGG: LGG = Lower grade glioma (N = 534); for Over-expression category of source gene (target coverage), LUAD: LUAD = Lung adenocarcinoma (N = 517); for Over-expression category of source gene (target coverage), OV: OV = Ovarian serous cystadenocarcinoma (N = 309); for Over-expression category of source gene (target coverage), SKCM: SKCM = Skin cutaneous melanoma (N = 473); for Over-expression category of source gene (target coverage), STAD: STAD = Stomach adenocarcinoma (N = 415)
source genes (mRNA) [2] = assay: Expression profiling of source genes by in-house RNASeq of tumor and normal tissues (Table 18, FIG. 2); set-up: species or system human; key: very highly over-expressed in tumors compared to a panel of normal tissues (+++); highly over-expressed in tumors compared to a panel of normal tissues (++); over-expressed in tumors compared to a panel of normal tissues (+); conditions: source gene of peptide; for Expression score BRCA: BRCA tumors vs panel of normal tissues; for Expression score OSCAR: esophageal cancer incl. gastric-esophageal junction (N = 11) vs panel of normal tissues; for Expression score NSCLC: non-small cell lung cancer (N = 11) vs panel of normal tissues; for Expression score OC: ovarian cancer (N = 12) vs panel of normal tissues; for Expression score PC: pancreatic cancer (N = 26) vs panel of normal tissues; for Expression score SCLC: small cell lung cancer (N = 10) vs panel of normal tissues
[3] = Table 14A, HLA-A*24-binding tumor-associated peptides, cancer entities on which the peptide was found presented

Substance | Presentation score HCC (HLA-A*24; HLA-A*24 peptides) | Presentation score NSCLC (HLA-A*24; HLA-A*24 peptides) | Peptide Presentation on cancer entities (HLA-A*24; [3]) | Over-expression category of source gene (target coverage), BLCA (source genes (mRNA) [1]; same cutoff) | Over-expression category of source gene (target coverage), BRCA (source genes (mRNA) [1]) | Over-expression category of source gene (target coverage), DLBC (source genes (mRNA) [1]; same cutoff) | Over-expression category of source gene (target coverage), ESCA (source genes (mRNA) [1]; same cutoff) | Over-expression category of source gene (target coverage), GBM (source genes (mRNA) [1]; same cutoff) | Over-expression category of source gene (target coverage), KIRC (source genes (mRNA) [1]; same cutoff) | Over-expression category of source gene (target coverage), KIRP (source genes (mRNA) [1]; same cutoff) | Over-expression category of source gene (target coverage), LAML (source genes (mRNA) [1]; same cutoff) | Over-expression category of source gene (target coverage), LGG (source genes (mRNA) [1]; same cutoff) | Over-expression category of source gene (target coverage), LUAD (source genes (mRNA) [1]; same cutoff) | Over-expression category of source gene (target coverage), OV (source genes (mRNA) [1]; same cutoff) | Over-expression category of source gene (target coverage), SKCM (source genes (mRNA) [1]; same cutoff) | Over-expression category of source gene (target coverage), STAD (source genes (mRNA) [1]; same cutoff) | Expression score BRCA (source genes (mRNA) [2]) | Expression score OSCAR (source genes (mRNA) [2]) | Expression score NSCLC (source genes (mRNA) [2]) | Expression score OC (source genes (mRNA) [2]) | further results
214: peptide found in USP18 (gene looked up) (LYLKLWNLI; listed as Homo sapiens) [compound 214] | ++++ | ++++ | NSCLC, HCC | A (>=50% of tumors above the cutoff) | A (>=50% of tumors above the cutoff) | B (>= 20% of tumors above the cutoff, but <50%) | B (>= 20% of tumors above the cutoff, but <50%) | B (>= 20% of tumors above the cutoff, but <50%) | B (>= 20% of tumors above the cutoff, but <50%) | B (>= 20% of tumors above the cutoff, but <50%) | A (>=50% of tumors above the cutoff) | A (>=50% of tumors above the cutoff) | A (>=50% of tumors above the cutoff) | A (>=50% of tumors above the cutoff) | A (>=50% of tumors above the cutoff) | B (>= 20% of tumors above the cutoff, but <50%) | ++ | ++ | + | +++ | Over-expression category of source gene (target coverage), CHOL (source genes (mRNA) [1]; CHOL = Cholangiocarcinoma (N = 36), same cutoff): B (>= 20% of tumors above the cutoff, but <50%); Over-expression category of source gene (target coverage), COAD (source genes (mRNA) [1]; COAD = Colon and rectal adenocarcinoma (N = 462), same cutoff): A (>=50% of tumors above the cutoff); Over-expression category of source gene (target coverage), KICH (source genes (mRNA) [1]; KICH = Kidney chromophobe (N = 66), same cutoff): B (>= 20% of tumors above the cutoff, but <50%); Over-expression category of source gene (target coverage), LIHC (source genes (mRNA) [1]; LIHC = Liver hepatocellular carcinoma (N = 374), same cutoff): B (>= 20% of tumors above the cutoff, but <50%); Over-expression category of source gene (target coverage), LUSC (source genes (mRNA) [1]; LUSC = Lung squamous cell carcinoma (N = 503), same cutoff): A (>=50% of tumors above the cutoff); Over-expression category of source gene (target coverage), PAAD (source genes (mRNA) [1]; PAAD = Pancreatic ductal adenocarcinoma (N = 179), same cutoff): A (>=50% of tumors above the cutoff); Over-expression category of source gene (target coverage), PRAD (source genes (mRNA) [1]; PRAD = Prostate adenocarcinoma (N = 498), same cutoff): A (>=50% of tumors above the cutoff); Over-expression category of source gene (target coverage), READ (source genes (mRNA) [1]; READ = Colon and rectal adenocarcinoma (N = 167), same cutoff): A (>=50% of tumors above the cutoff); Over-expression category of source gene (target coverage), UCEC (source genes (mRNA) [1]; UCEC = Uterine corpus endometrial carcinoma (N = 546), same cutoff): A (>=50% of tumors above the cutoff); Expression score AML (source genes (mRNA) [2]; acute myeloid leukemia (N = 11) vs panel of normal tissues): +; Expression score PC (source genes (mRNA) [2]): +; Expression score SCLC (source genes (mRNA) [2]): +++; Expression score UBC (source genes (mRNA) [2]; urinary bladder cancer (N = 10) vs panel of normal tissues): +; Expression score UEC (source genes (mRNA) [2]; uterine cancer (N = 10) vs panel of normal tissues): +
216: peptide found in HEATR5A (gene looked up) (QYSSVFKSL; listed as Homo sapiens) [compound 216] |  |  | GB, GC |  | C (>=5% of tumors above the cutoff, but <20%) |  | B (>= 20% of tumors above the cutoff, but <50%) | C (>=5% of tumors above the cutoff, but <20%) |  |  | C (>=5% of tumors above the cutoff, but <20%) | B (>= 20% of tumors above the cutoff, but <50%) | C (>=5% of tumors above the cutoff, but <20%) |  | C (>=5% of tumors above the cutoff, but <20%) | C (>=5% of tumors above the cutoff, but <20%) |  |  |  |  | Peptide Presentation on cancer entities (HLA-A*24; HLA-A*24-binding peptides, additional cancer entities, GB = glioblastoma, HCC = hepatocellular carcinoma, NSCLC = non-small cell lung cancer, PCA = prostate cancer): NSCLC, HCC; Presentation score GC (HLA-A*24; HLA-A*24 peptides, gastric cancer (N = 44) vs panel of normal tissues (N = 70)): ++++; Presentation score GB (HLA-A*24; HLA-A*24 peptides): ++++; Expression score GB (source genes (mRNA) [2]; glioblastoma (N = 24) vs panel of normal tissues): +
223: peptide found in RNF213 (gene looked up) (KYIPYKYVI; listed as Homo sapiens) [compound 223] |  |  | NSCLC, HCC | C (>=5% of tumors above the cutoff, but <20%) | B (>= 20% of tumors above the cutoff, but <50%) | C (>=5% of tumors above the cutoff, but <20%) | A (>=50% of tumors above the cutoff) |  | B (>= 20% of tumors above the cutoff, but <50%) | B (>= 20% of tumors above the cutoff, but <50%) | A (>=50% of tumors above the cutoff) |  | C (>=5% of tumors above the cutoff, but <20%) | B (>= 20% of tumors above the cutoff, but <50%) | C (>=5% of tumors above the cutoff, but <20%) | A (>=50% of tumors above the cutoff) | + | + | + | ++ | Expression score NHL (source genes (mRNA) [2]; non-Hodgkin lymphoma (N = 10) vs panel of normal tissues): +; Expression score PC (source genes (mRNA) [2]): +; Expression score SCLC (source genes (mRNA) [2]): +
224: peptide found in SMG1 (gene looked up) (QYLENLEKL; listed as Homo sapiens) [compound 224] | + | + | GB, NSCLC, HCC |  | C (>=5% of tumors above the cutoff, but <20%) |  | C (>=5% of tumors above the cutoff, but <20%) |  |  |  | A (>=50% of tumors above the cutoff) |  |  |  |  |  |  |  |  |  | Presentation score GB (HLA-A*24; HLA-A*24 peptides): +; Expression score CLL (source genes (mRNA) [2]; chronic lymphocytic leukemia (N = 10) vs panel of normal tissues): +

Source: patent publication US20170189504A1, “NOVEL PEPTIDES AND COMBINATION OF PEPTIDES FOR USE IN IMMUNOTHERAPY AGAINST VARIOUS CANCERS” (immatics biotechnologies GmbH, priority 2015, published 2017)
